The list shows a part of the results. Further columns of the screen follow, without active or inactive calls. Compounds called inactive in the main read-out are mostly missing here. Potencies come from curve fits of mixed quality, noted in brackets.
Experiment: IkB Signaling
Details: ABC-DLBCL IkBa-CBG/CBR dual luciferase ratio (green luciferase fused to IkBa over red control in OCI-Ly3 lymphoma cells), 4 h
How it was run: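 Curves were fitted separately to fusion (green), unfused (red) and ratio luminescence, then classed by r2, magnitude and activity. Cells: OCI-Ly3, 4 h compound plus doxycycline at 37C; 10 uM MG-132 defined full response.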

[1] = measured here: control luc red channel unless noted
[2] = measured here: IkB-luc green channel
[3] = measured here: control luc red channel

## COc1cc(OC)cc(-c2nnc(SCC(=O)N3CCCc4ccccc43)o2)c1
[1]
  AC50: 20 µM [falling, partial curve]

## Cc1ccc(CCNC(=O)c2ccc(CS(=O)(=O)Cc3cccc(C)c3)o2)cc1
[1]
  AC50: 39.8 µM [falling, single point]

## COc1ccc(Cn2ccc3nc(C)c(C(=O)N4CCN(c5ccccc5F)CC4)cc3c2=O)cc1
[1]
  AC50: 20 µM [falling, partial curve]

## Oc1c(C(Nc2nc3ccccc3s2)c2ccco2)ccc2cccnc12 (centres undefined)
[1]
  AC50: 31.6 µM [rising, single point] [measured here: IkB-luc green channel]

## COC(=O)c1cc2sc(C)cc2n1CC(=O)Nc1cccc(SC)c1
[1]
  AC50: 25.1 µM [falling, single point]

## COc1ccc(NC(=O)c2cc(S(=O)(=O)NCCC3=CCCCC3)ccc2F)cc1
[1]
  AC50: 25.1 µM [falling, partial curve]

## COc1ccc(-c2nc3cc(C(C)C)ccc3o2)cc1NC(=O)c1ccc(C)c(Cl)c1
[1]
  AC50: 2 µM [falling, full curve]

## FC(F)(F)c1ccc(-c2noc(-c3ccccc3Br)n2)cc1
[1]
  AC50: 0.501 µM [rising, full curve]

## CCN(CC)C(=O)c1sc2c(c1C)c(=O)n(-c1ccc(C)c(C)c1)c(=O)n2Cc1cccc(Cl)c1
[1]
  AC50: 0.631 µM [rising, full curve]

## Cc1ccc(OCC(=O)Nc2ccc3nc(SCC(=O)N4CCOCC4)sc3c2)cc1C
[1]
  AC50: 6.31 µM [falling, partial curve]

## COc1ccc(-c2cc(C(=O)N3CCCc4ccccc43)no2)cc1OC
[1]
  AC50: 2.51 µM [falling, full curve]

## O=C1c2ccccc2NC(c2ccc(Cl)cc2Cl)N1O (centres undefined)
[1]
  AC50: 0.631 µM [falling, full curve]

## O=c1[nH]nc(Sc2ncnc3sccc23)n1CCc1ccccc1
[1]
  AC50: 15.8 µM [falling, partial curve]

## COc1cccc(C(=O)CSc2nnc(COc3cccc4cccnc34)o2)c1
[1]
  AC50: 25.1 µM [falling, partial curve]

## O=C1CN(C(=O)c2ccc(S(=O)(=O)N3CCCCC3)cc2)C(c2ccc(F)cc2)c2cc(Br)ccc2N1 (centres undefined)
[1]
  AC50: 0.794 µM [falling, single point]

## Cc1ccc2oc(-c3cccc(NC(=O)C4CCCO4)c3)nc2c1 (centres undefined)
[1]
  AC50: 12.6 µM [falling, partial curve]

## O=C(COc1ccccc1[N+](=O)[O-])Nc1cc(-c2nc3cc(Cl)ccc3o2)ccc1Cl
[1]
  AC50: 10 µM [falling, full curve]

## COc1cc2nc(N3CCN(C(=O)OCc4ccccc4)[C@H](C(=O)NC(C)(C)C)C3)nc(N)c2cc1OC
[1]
  AC50: 7.94 µM [falling, single point]

## Cc1cc(C)c(S(=O)(=O)NCc2csc(-c3ccccc3)n2)c(C)c1
[1]
  AC50: 20 µM [falling, single point]

## O=C(CSc1nc2c([nH]c3ccccc32)c(=O)n1-c1ccc(F)cc1)NCc1ccco1
[1]
  AC50: 0.794 µM [rising, partial curve]

## CCSc1nnc2c(n1)OC(c1sccc1C)N(C(C)=O)c1ccccc1-2 (centres undefined)
[1]
  AC50: 15.8 µM [falling, partial curve]

## COC(=O)c1c(C)oc2ccc(N(C(=O)Oc3ccccc3)S(=O)(=O)c3ccc(C(C)(C)C)cc3)cc12
[1]
  AC50: 0.794 µM [falling, partial curve]

## Cc1c(C)n(C)c2ccc(C(=O)NCCc3ccc(Cl)cc3)cc12
[1]
  AC50: 15.8 µM [falling, single point]

## O=c1oc(-c2cccs2)nc2sc3c(c12)CCCCC3
[1]
  AC50: 0.0251 µM [falling, full curve]

## Cc1c(C(=O)Nc2ccc(F)c(F)c2)oc2ccc(S(=O)(=O)N3CCC4(CC3)OCCO4)cc12
[1]
  AC50: 10 µM [falling, partial curve]

## O=C(Nc1c(-c2ccc(F)cc2)nc2ccccn12)c1cccc(F)c1
[1]
  AC50: 25.1 µM [falling, single point]

## Cc1ccc(C2C=C(c3ccc(F)cc3)Nc3nc(CCCO)nn32)cc1 (centres undefined)
[1]
  AC50: 15.8 µM [falling, partial curve]

## Cc1cccc(-n2nnc(C(=O)Nc3ccc(F)cc3)c2N)c1
[1]
  AC50: 3.98 µM [falling, partial curve]

## COc1ccc(OC)c(NC(=O)c2cnc(N3CCCC3)nc2C)c1
[1]
  AC50: 39.8 µM [falling, single point]

## O=C(CN1C(=O)CCc2cc(S(=O)(=O)N3CCOCC3)ccc21)NCc1ccccc1Cl
[1]
  AC50: 15.8 µM [falling, partial curve]

## CCSc1ncc(Cl)c(C(=O)N(Cc2ccccc2)Cc2ccco2)n1
[1]
  AC50: 20 µM [falling, single point]

## CC(=O)c1ccc(N2CCN(C(=O)c3cc4ccc5cccnc5c4[nH]3)CC2)cc1
[1]
  AC50: 25.1 µM [falling, single point]

## CCc1nn(CC(=O)N2CCN(c3ccc(Cl)cc3)CC2)c(=O)c2cc3occc3n12
[1]
  AC50: 15.8 µM [falling, partial curve]

## CCn1c(=O)n(-c2cccc(Cl)c2)c(=O)c2sc3ccccc3c21
[1]
  AC50: 1.26 µM [rising, full curve]

## Cc1ccc(C2CC(C(F)(F)F)n3nc(C(=O)NCc4c(C)nn(C)c4C)c(Cl)c3N2)cc1 (centres undefined)
[2]
  AC50: 15.8 µM [falling, partial curve]
[3]
  AC50: 15.8 µM [falling, partial curve]

## O=C(c1cnc(N2CCCCC2)c2ccccc12)N1CCN(c2ccc(Cl)cc2)CC1
[1]
  AC50: 31.6 µM [falling, partial curve, poor fit]

## O=C(COC(=O)c1ccc(Oc2ccccc2)cc1)Nc1nnc(-c2ccccc2)o1
[1]
  AC50: 39.8 µM [falling, single point]

## COc1ccc(CCN2CC(C(=O)NCCc3ccccc3)CC2=O)cc1OC (centres undefined)
[1]
  AC50: 20 µM [rising, partial curve, poor fit]

## COc1ccc(OC)c(/C=C(\C#N)c2nc3ccccc3c(=O)[nH]2)c1
[1]
  AC50: 0.0501 µM [falling, full curve]

## O=C(CCC(=O)c1ccccc1)Nc1ccc(F)c(Cl)c1
[1]
  AC50: 39.8 µM [falling, single point]

## Cc1ccc(C)c(S(=O)(=O)NCCc2csc(-c3ccc(Cl)cc3)n2)c1
[1]
  AC50: 15.8 µM [falling, partial curve]

## Cc1cccc(NC(=O)C2CCCN(S(=O)(=O)c3ccc4c(c3)oc(=O)n4C)C2)c1 (centres undefined)
[1]
  AC50: 15.8 µM [falling, single point]

## O=S(=O)(NCCS(=O)(=O)N1CCN(c2ccccc2)CC1)c1ccc(Cl)cc1
[1]
  AC50: 0.00631 µM [falling, full curve, poor fit]

## COc1ccccc1CNC(=O)c1ccoc1C
[1]
  AC50: 15.8 µM [falling, partial curve]

## Cn1c(SCC(=O)Nc2ccccc2)nc(O)cc1=O
[1]
  AC50: 15.8 µM [falling, partial curve]

## CCOC(=O)c1ccc2c(c1)[C@@H]1C=CC[C@@H]1[C@H](c1cccc(OC)c1OC)N2
[1]
  AC50: 31.6 µM [falling, single point]

## Cc1ccc(-n2nc3ccc(NC(=O)Cc4ccc(Cl)cc4)cc3n2)cc1
[1]
  AC50: 0.126 µM [rising, full curve]

## COC(=O)c1sc2cccc(F)c2c1S(=O)(=O)NCc1ccc(Cl)cc1
[1]
  AC50: 5.01 µM [falling, partial curve]

## COc1ccccc1-c1nnc2sc(COc3ccc(Cl)cc3Cl)nn12
[1]
  AC50: 25.1 µM [falling, single point]

## Cc1ccc(CSc2ncc(Cl)c(C(=O)Oc3ccc(F)cc3)n2)cc1
[1]
  AC50: 25.1 µM [falling, single point]

## COc1ccccc1N1CCN(CCCNC(=O)c2cnn(-c3ccc(C)c(C)c3)c2C2CCN(C(=O)OC(C)(C)C)CC2)CC1
[1]
  AC50: 0.0398 µM [falling, full curve, poor fit]

## CCCCS(=O)(=O)c1oc(-c2ccc(F)cc2)nc1S(=O)(=O)c1ccccc1
[1]
  AC50: 3.16 µM [falling, full curve]

## O=C(c1ccc2c(c1)N(Cc1ccc(F)cc1)C(=O)c1ccccc1S2(=O)=O)N1CCN(c2ccccn2)CC1
[1]
  AC50: 0.316 µM [falling, single point]

## COc1ccccc1CNC(=O)c1cnc2c(-c3ccccc3)c(C)nn2c1C
[1]
  AC50: 31.6 µM [falling, single point]

## O=C(CSc1n[nH]c(-c2ccc(S(=O)(=O)N3CCCCC3)cc2)n1)Nc1nccs1
[1]
  AC50: 31.6 µM [falling, single point]

## COc1ccc(-c2ccc(NS(=O)(=O)c3ccccc3Cl)cc2)nn1
[1]
  AC50: 10 µM [falling, partial curve]

## Cc1ccc2c(c1)CCCN2C(=O)c1c(C)noc1C
[1]
  AC50: 3.16 µM [falling, partial curve]

## O=C1c2ccccc2C(=O)N1CCCCCc1nc(-c2ccccc2)no1
[1]
  AC50: 15.8 µM [falling, partial curve]

## CCOc1ccc(C(c2c(C)[nH]n(-c3ccccc3)c2=O)c2c(C)[nH]n(-c3ccccc3)c2=O)cc1OC
[2]
  AC50: 31.6 µM [rising, partial curve]
[3]
  AC50: 39.8 µM [rising, partial curve]

## COc1ccc(-c2nsc(NC(=O)c3cccc(OC)c3)n2)cc1
[1]
  AC50: 0.631 µM [falling, full curve]

## CCc1ccc(-c2cn3c(n2)sc2cc(C(=O)NCCCc4ccccc4)ccc23)cc1
[1]
  AC50: 25.1 µM [falling, single point]

## O=C(Nc1cccc(-c2nc3cc(Cl)ccc3o2)c1)c1ccc(F)cc1
[1]
  AC50: 20 µM [falling, partial curve, poor fit]
